Measured values: the supplement of paper PMC10849652
The list shows a part of the results.

The chains behind the UniProt entries cited, without tags or fusion partners. Where a name states a change or a piece, a line headed by the entry shows the natural chain unless it says otherwise.
UniProt Q9Y3B8: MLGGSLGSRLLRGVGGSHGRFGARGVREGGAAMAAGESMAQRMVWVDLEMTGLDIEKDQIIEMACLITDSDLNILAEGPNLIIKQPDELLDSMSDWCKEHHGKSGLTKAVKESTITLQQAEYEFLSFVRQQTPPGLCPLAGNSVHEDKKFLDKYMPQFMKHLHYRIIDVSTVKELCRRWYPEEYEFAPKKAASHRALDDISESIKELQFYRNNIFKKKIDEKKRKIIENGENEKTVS
UniProt Q8NDN9: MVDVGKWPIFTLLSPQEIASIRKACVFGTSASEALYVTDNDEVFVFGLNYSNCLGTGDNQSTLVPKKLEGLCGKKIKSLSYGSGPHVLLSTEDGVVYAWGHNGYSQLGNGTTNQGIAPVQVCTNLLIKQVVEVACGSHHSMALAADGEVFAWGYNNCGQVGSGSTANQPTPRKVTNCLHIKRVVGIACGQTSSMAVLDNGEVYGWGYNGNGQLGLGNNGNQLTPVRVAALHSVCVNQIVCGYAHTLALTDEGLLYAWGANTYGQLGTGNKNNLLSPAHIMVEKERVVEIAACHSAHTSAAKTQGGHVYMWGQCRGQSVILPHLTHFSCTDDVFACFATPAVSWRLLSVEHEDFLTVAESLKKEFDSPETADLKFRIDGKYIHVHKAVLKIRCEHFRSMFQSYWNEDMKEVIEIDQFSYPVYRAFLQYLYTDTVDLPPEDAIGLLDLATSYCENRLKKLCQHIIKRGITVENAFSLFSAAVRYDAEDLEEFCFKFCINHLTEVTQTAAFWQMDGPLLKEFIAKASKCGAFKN
UniProt Q9NPQ8: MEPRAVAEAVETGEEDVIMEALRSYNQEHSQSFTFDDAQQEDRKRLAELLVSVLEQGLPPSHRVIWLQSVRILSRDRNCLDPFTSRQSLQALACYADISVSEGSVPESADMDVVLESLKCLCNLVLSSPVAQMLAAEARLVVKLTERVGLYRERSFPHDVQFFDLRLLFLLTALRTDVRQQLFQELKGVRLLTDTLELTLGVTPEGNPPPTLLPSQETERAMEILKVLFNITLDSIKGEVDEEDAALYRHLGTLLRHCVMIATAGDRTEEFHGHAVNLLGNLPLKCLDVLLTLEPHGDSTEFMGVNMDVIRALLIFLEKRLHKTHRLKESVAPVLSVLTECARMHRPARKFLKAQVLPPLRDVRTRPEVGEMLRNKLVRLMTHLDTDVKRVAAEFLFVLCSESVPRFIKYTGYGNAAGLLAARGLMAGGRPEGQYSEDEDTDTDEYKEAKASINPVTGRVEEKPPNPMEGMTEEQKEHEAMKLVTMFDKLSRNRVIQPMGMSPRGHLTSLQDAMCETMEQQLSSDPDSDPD
UniProt Q8ND24: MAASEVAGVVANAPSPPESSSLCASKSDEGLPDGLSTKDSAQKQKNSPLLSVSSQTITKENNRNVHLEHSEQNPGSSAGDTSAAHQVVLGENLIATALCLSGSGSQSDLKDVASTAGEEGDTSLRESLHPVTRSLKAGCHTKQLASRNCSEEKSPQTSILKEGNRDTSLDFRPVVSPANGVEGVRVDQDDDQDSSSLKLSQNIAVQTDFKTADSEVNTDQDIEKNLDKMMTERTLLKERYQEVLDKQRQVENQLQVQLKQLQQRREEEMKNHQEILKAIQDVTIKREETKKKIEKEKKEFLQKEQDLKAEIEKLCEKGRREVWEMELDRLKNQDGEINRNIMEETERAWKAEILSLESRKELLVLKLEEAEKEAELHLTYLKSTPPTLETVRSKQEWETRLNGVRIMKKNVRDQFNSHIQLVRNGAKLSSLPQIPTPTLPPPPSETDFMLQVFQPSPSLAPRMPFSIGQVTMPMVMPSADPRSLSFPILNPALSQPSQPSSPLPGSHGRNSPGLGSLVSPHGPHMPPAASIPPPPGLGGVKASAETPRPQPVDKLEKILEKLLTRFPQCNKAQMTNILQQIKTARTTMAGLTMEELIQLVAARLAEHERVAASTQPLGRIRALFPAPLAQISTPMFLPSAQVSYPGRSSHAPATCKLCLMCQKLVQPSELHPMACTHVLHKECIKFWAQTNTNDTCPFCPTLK
UniProt Q15293: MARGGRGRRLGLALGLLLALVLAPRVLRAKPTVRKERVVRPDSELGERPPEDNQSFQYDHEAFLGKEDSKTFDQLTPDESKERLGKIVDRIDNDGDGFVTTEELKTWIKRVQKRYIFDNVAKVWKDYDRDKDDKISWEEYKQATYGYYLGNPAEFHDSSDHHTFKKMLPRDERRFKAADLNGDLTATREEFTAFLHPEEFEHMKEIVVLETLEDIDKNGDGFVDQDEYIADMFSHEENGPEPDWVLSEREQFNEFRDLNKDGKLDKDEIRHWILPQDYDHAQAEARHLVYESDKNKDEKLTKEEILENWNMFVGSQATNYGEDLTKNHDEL
UniProt Q5TC82: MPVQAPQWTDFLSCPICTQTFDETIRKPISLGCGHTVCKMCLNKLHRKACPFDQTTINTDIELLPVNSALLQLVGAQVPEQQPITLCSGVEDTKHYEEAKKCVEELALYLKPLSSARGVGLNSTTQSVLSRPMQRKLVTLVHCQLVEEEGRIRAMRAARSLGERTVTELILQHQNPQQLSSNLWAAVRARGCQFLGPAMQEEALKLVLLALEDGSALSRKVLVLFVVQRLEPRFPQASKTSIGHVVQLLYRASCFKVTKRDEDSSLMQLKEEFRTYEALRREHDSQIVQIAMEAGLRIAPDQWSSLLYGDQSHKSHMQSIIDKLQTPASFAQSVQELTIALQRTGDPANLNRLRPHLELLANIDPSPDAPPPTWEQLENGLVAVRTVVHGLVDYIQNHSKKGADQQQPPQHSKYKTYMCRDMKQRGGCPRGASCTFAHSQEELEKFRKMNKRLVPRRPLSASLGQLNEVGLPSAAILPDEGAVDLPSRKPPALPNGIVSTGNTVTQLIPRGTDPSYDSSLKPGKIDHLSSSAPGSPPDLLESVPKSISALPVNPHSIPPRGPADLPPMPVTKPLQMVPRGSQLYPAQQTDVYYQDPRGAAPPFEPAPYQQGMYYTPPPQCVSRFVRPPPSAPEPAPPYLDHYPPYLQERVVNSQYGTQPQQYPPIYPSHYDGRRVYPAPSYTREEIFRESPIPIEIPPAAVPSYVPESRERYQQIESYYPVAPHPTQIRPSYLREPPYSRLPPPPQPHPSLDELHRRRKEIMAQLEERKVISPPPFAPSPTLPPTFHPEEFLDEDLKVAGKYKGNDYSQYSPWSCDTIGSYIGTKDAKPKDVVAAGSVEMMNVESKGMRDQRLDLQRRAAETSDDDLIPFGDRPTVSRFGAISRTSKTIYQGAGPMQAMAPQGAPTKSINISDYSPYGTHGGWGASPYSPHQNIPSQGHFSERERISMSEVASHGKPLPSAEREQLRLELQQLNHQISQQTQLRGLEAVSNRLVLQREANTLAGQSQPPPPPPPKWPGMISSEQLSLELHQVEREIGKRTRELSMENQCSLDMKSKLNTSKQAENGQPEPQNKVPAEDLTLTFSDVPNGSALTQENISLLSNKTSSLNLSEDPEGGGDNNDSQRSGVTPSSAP
UniProt Q96AA3: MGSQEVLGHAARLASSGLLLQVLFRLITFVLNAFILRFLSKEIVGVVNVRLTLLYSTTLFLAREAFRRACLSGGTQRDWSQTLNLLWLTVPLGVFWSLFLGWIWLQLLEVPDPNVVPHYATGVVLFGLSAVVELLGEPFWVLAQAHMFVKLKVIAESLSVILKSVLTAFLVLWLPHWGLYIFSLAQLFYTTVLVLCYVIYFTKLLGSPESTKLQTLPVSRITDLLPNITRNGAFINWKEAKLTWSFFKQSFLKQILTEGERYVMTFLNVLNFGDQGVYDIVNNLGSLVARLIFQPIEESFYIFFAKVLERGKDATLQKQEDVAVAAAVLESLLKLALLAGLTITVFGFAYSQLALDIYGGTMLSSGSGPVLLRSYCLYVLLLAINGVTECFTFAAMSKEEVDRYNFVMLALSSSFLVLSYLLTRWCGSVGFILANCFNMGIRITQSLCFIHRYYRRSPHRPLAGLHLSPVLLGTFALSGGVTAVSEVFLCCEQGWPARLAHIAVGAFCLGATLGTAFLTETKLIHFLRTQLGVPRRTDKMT
UniProt P62745, whole entry, looked up: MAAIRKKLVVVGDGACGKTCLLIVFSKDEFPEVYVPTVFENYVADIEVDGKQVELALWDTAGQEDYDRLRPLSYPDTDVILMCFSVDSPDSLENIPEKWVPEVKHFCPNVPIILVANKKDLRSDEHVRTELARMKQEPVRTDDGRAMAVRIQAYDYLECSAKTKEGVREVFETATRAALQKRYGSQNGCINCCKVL
UniProt Q5VTR2, whole entry, looked up: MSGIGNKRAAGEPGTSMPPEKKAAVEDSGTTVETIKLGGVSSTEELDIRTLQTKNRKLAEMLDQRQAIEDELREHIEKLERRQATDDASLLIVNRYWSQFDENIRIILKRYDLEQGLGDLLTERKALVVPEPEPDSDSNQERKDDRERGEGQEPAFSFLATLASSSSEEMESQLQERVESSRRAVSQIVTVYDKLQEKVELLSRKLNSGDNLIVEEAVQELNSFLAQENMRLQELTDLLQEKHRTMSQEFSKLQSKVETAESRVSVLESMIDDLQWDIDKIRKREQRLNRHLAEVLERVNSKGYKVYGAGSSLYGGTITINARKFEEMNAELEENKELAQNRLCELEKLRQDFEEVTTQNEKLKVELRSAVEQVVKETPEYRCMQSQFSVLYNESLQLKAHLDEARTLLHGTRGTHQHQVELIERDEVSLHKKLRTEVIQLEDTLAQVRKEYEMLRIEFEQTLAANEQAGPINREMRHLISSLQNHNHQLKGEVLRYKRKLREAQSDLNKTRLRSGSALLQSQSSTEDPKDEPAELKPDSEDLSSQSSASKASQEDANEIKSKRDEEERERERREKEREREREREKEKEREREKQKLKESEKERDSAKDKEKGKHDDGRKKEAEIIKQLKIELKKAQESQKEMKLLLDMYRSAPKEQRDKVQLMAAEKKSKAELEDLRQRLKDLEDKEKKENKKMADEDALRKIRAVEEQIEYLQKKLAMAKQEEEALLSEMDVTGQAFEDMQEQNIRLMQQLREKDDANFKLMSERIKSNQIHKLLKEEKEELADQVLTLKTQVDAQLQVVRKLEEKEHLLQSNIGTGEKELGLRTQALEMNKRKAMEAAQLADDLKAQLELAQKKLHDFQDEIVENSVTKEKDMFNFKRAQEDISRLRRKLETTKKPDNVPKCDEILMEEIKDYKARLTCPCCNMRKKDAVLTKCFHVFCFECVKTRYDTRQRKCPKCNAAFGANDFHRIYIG
UniProt Q5EBL4: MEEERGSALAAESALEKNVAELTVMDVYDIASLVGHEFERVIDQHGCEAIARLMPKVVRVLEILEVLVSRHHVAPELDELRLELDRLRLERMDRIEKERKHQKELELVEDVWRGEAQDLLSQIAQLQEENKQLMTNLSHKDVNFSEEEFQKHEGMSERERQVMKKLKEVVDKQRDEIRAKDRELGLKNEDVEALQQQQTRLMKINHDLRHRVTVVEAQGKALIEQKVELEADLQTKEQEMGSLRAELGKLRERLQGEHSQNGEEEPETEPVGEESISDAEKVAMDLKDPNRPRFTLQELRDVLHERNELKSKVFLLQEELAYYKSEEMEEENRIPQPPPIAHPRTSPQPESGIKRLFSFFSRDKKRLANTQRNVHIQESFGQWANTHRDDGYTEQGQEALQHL
UniProt Q9H871: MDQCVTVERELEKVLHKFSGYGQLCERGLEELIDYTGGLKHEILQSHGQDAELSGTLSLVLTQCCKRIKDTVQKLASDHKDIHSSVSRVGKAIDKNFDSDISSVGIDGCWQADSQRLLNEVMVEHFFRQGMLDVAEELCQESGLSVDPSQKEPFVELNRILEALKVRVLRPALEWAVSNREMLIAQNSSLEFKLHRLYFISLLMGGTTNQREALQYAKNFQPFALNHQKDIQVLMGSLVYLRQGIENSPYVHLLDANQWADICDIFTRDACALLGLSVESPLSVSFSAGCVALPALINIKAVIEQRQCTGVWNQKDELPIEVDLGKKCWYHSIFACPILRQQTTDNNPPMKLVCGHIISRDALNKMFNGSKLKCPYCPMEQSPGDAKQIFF
UniProt Q8IUF8: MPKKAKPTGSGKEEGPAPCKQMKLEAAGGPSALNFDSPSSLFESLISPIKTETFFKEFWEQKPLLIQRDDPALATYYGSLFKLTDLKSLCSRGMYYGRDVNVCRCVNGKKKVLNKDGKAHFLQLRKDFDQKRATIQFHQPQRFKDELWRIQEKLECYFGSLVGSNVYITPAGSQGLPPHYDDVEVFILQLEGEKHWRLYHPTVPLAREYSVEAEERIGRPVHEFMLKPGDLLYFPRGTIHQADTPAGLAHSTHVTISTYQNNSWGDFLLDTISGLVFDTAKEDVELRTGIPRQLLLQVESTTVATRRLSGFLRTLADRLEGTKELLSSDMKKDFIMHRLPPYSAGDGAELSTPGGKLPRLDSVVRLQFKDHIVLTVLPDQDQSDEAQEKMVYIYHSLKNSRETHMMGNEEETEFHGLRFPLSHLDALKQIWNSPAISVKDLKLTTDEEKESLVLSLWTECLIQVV
UniProt P82980: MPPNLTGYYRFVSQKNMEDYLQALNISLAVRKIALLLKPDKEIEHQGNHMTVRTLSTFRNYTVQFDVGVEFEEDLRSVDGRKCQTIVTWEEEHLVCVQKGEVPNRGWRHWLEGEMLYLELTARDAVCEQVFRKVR

How the values were obtained:
Experiment in all cases: log2 fold change, soluble protein after heating vs DMSO (PISA); higher = thermal stabilisation; K562 cells, 10 uM, 30 min; active = over 0.2 and 3.5 SD of the protein, either way, in both replicates (recomputed)
saracatinib = compound: CN1CCN(CCOc2cc(OC3CCOCC3)c3c(Nc4c(Cl)ccc5c4OCO5)ncnc3c2)CC1 [saracatinib]
Procedure, shortened: (§1)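 K562 cells at 2×10^6 cells/mL were given 10 μM compound for 30 min. Aliquots then went through 3 min of heating across 48°C-58°C, were pooled, and were extracted in PBS with 0.5% NP-40 at 4°C, and the supernatant after 21,000xg for 90 min was quantified by TMTpro 16plex LC-MS/MS with channel sums equalised. Thermal stability relative to control samples, from duplicates, is given as log2 fold change.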

sotrastaurin = compound: CN1CCN(c2nc(C3=C(c4c[nH]c5ccccc45)C(=O)NC3=O)c3ccccc3n2)CC1 [sotrastaurin]
Procedure, shortened: as §1

alvocidib = compound: CN1CC[C@H](c2c(O)cc(O)c3c(=O)cc(-c4ccccc4Cl)oc23)[C@H](O)C1 [alvocidib]
Procedure, shortened: as §1

Tubastatin A = compound: CN1CCc2c(c3ccccc3n2Cc2ccc(C(=O)NO)cc2)C1 [Tubastatin A]
Procedure, shortened: as §1

[1] = compound: CNC(=O)C1=CC=CC=C1NC2=NC(=NC=C2Cl)NC3=C(C=C(C=C3)N4CCOCC4)OC
Procedure, shortened: as §1

defactinib = compound: CNC(=O)c1ccc(Nc2ncc(C(F)(F)F)c(NCc3nccnc3N(C)S(C)(=O)=O)n2)cc1 [defactinib]
Procedure, shortened: as §1

rucaparib = compound: CNCc1ccc(-c2[nH]c3cc(F)cc4c3c2CCNC4=O)cc1 [rucaparib]
Procedure, shortened: as §1

[2] = compound: CNc1nc(-c2ccc3c(N)n[nH]c3c2)cc(N2C[C@@H](C(=O)NC3CCCCC3)CC[C@H]2C)n1
Procedure, shortened: as §1

encorafenib = compound: COC(=O)N[C@@H](C)CNc1nccc(-c2cn(C(C)C)nc2-c2cc(Cl)cc(NS(C)(=O)=O)c2F)n1 [encorafenib]
Procedure, shortened: as §1

[3] = compound: COC(=O)[C@H](CCSC)NC(=O)C1=C(C=C(C=C1)NC[C@H](CS)N)C2=CC=CC=C2
Procedure, shortened: as §1

[4] = compound: COC1=CC=C(C=C1)CN2C=CC3=C2C=C(C=C3)C(=O)NO
Procedure, shortened: as §1

filanesib = compound: CON(C)C(=O)N1N=C(c2cc(F)ccc2F)S[C@@]1(CCCN)c1ccccc1 [filanesib]
Procedure, shortened: as §1

zotarolimus = compound: CO[C@H]1C[C@@H]2CC[C@@H](C)[C@@](O)(O2)C(=O)C(=O)N2CCCC[C@H]2C(=O)O[C@H]([C@H](C)C[C@@H]2CC[C@H](n3cnnn3)[C@H](OC)C2)CC(=O)[C@H](C)/C=C(\C)[C@@H](O)[C@@H](OC)C(=O)[C@H](C)C[C@H](C)/C=C/C=C/C=C/1C [zotarolimus]
Procedure, shortened: as §1

idasanutlin = compound: COc1cc(C(=O)O)ccc1NC(=O)[C@@H]1N[C@@H](CC(C)(C)C)[C@](C#N)(c2ccc(Cl)cc2F)[C@H]1c1cccc(Cl)c1F [idasanutlin]
Procedure, shortened: as §1

alisertib = compound: COc1cc(Nc2ncc3c(n2)-c2ccc(Cl)cc2C(c2c(F)cccc2OC)=NC3)ccc1C(=O)O [alisertib]
Procedure, shortened: as §1

[5] = compound: COc1cc2nc(-c3cc(F)ccc3O)nc(N[C@@H]3CNC[C@H]3C(C)(C)O)c2cc1OC
Procedure, shortened: as §1

gefitinib = compound: COc1cc2ncnc(Nc3ccc(F)c(Cl)c3)c2cc1OCCCN1CCOCC1 [gefitinib]
Procedure, shortened: as §1

[6] = compound: COc1cccc2cc(-c3nc([C@H]4CC[C@H](C(=O)O)CC4)n4ncnc(N)c34)[nH]c12
Procedure, shortened: as §1

lapatinib = compound: CS(=O)(=O)CCNCc1ccc(-c2ccc3ncnc(Nc4ccc(OCc5cccc(F)c5)c(Cl)c4)c3c2)o1 [lapatinib]
Procedure, shortened: as §1

pictilisib = compound: CS(=O)(=O)N1CCN(Cc2cc3nc(-c4cccc5[nH]ncc45)nc(N4CCOCC4)c3s2)CC1 [pictilisib]
Procedure, shortened: as §1

Measured: log2 fold change

REXO2 (UniProt Q9Y3B8)
inactive: saracatinib 0.026 | sotrastaurin 0.058 | alvocidib -0.001 | Tubastatin A -0.031 | [1] -0.01 | defactinib -0.003 | rucaparib 0.001 | [2] -0.058 | encorafenib -0.019 | [3] 0.023 | [4] -0.012 | filanesib -0.026 | zotarolimus 0.012 | idasanutlin -0.007 | alisertib -0.006 | [5] 0.02 | gefitinib -0.002 | [6] 0.079 | lapatinib -0.035 | pictilisib 0.08

RCBTB1 (UniProt Q8NDN9)
inactive: saracatinib -0.042 | sotrastaurin 0.015 | alvocidib -0.154 | [1] 0.109 | [2] -0.217 | filanesib -0.147 | zotarolimus -0.087

RIC8A isoform 3 (UniProt Q9NPQ8)
inactive: saracatinib 0.008 | sotrastaurin -0.223 | Tubastatin A 0.108 | [1] -0.096 | defactinib -0.175 | rucaparib 0.198 | [2] -0.087 | encorafenib 0.287 | [3] -0.12 | [4] -0.007 | filanesib -0.046 | zotarolimus -0.058 | idasanutlin -0.032 | alisertib 0.159 | [5] -0.095 | gefitinib 0.043 | [6] 0.009 | lapatinib 0.001 | pictilisib -0.002

RNF214 (UniProt Q8ND24)
inactive: saracatinib -0.019 | sotrastaurin -0.036 | alvocidib -0.004 | Tubastatin A 0.033 | [1] -0.021 | defactinib -0.037 | rucaparib 0.087 | [2] 0.066 | encorafenib 0.085 | [3] -0.021 | [4] -0.036 | filanesib 0.072 | zotarolimus 0.018 | idasanutlin -0.047 | alisertib -0.076 | [5] 0.089 | gefitinib 0.022 | [6] -0.078 | lapatinib 0.025 | pictilisib 0

Fetched one by one from the list above, 2 records:
RIC8A isoform 3 (UniProt Q9NPQ8)
inactive: saracatinib 0.008 | sotrastaurin -0.223 | Tubastatin A 0.108 | [1] -0.096 | defactinib -0.175 | rucaparib 0.198 | [2] -0.087 | encorafenib 0.287 | [3] -0.12 | [4] -0.007 | filanesib -0.046 | zotarolimus -0.058 | idasanutlin -0.032 | alisertib 0.159 | [5] -0.095 | gefitinib 0.043 | [6] 0.009 | lapatinib 0.001 | pictilisib -0.002

REXO2 (UniProt Q9Y3B8)
inactive: saracatinib 0.026 | sotrastaurin 0.058 | alvocidib -0.001 | Tubastatin A -0.031 | [1] -0.01 | defactinib -0.003 | rucaparib 0.001 | [2] -0.058 | encorafenib -0.019 | [3] 0.023 | [4] -0.012 | filanesib -0.026 | zotarolimus 0.012 | idasanutlin -0.007 | alisertib -0.006 | [5] 0.02 | gefitinib -0.002 | [6] 0.079 | lapatinib -0.035 | pictilisib 0.08

Later entries.

RCN1 (UniProt Q15293)
inactive: saracatinib -0.005 | sotrastaurin 0.042 | alvocidib 0.025 | Tubastatin A -0.01 | [1] -0.005 | defactinib -0.018 | rucaparib -0.014 | [2] -0.12 | encorafenib -0.021 | [3] 0.038 | [4] -0.051 | filanesib 0.003 | zotarolimus -0.051 | idasanutlin -0.012 | alisertib -0.002 | [5] 0.002 | gefitinib 0.014 | [6] 0.039 | lapatinib -0.036 | pictilisib -0.034

RC3H1 (UniProt Q5TC82)
inactive: saracatinib 0.026 | sotrastaurin -0.052 | alvocidib 0.013 | Tubastatin A 0.078 | [1] 0.018 | defactinib 0.097 | rucaparib 0.043 | [2] 0.007 | encorafenib -0.098 | [3] -0.035 | [4] -0.007 | filanesib 0 | zotarolimus -0.074 | idasanutlin -0.261 | alisertib 0.114 | [5] 0.116 | [6] -0.326 | lapatinib -0.027 | pictilisib -0.287

RFT1 (UniProt Q96AA3)
inactive: saracatinib 0.067 | sotrastaurin 0.052 | alvocidib 0.01 | Tubastatin A -0.003 | [1] 0.001 | defactinib -0.01 | rucaparib -0.044 | [2] -0.036 | encorafenib 0.015 | [3] 0.059 | [4] -0.096 | filanesib -0.023 | zotarolimus -0.054 | idasanutlin -0.001 | alisertib -0.04 | [5] 0.106 | gefitinib 0.033 | [6] 0.117 | lapatinib -0.099 | pictilisib 0.016

RHOB (UniProt P62745)
inactive: saracatinib 0.118 | sotrastaurin -0.038 | alvocidib -0.008 | Tubastatin A -0.041 | [1] 0.013 | defactinib 0.265 | rucaparib 0.041 | [2] -0.236 | encorafenib -0.01 | [3] 0.184 | [4] 0.35 | filanesib -0.024 | zotarolimus 0.014 | idasanutlin 0.135 | alisertib 0.042 | [5] -0.088 | gefitinib -0.026 | [6] -0.051 | lapatinib -0.005 | pictilisib 0.058

RNF20 (UniProt Q5VTR2)
inactive: saracatinib 0.018 | sotrastaurin -0.193 | alvocidib -0.146 | Tubastatin A 0.111 | [1] 0.087 | rucaparib -0.015 | [2] -0.137 | encorafenib -0.125 | [4] 0.008 | filanesib 0.124 | zotarolimus -0.052 | idasanutlin 0 | alisertib 0.25 | [5] -0.005 | gefitinib -0.062 | [6] 0.147 | lapatinib 0.068 | pictilisib 0.048

RHOT1 isoform 3 (UniProt Q8IXI2)
inactive: saracatinib 0.04 | sotrastaurin -0.007 | alvocidib -0.024 | Tubastatin A -0.018 | [1] 0.032 | defactinib -0.041 | rucaparib -0.011 | [2] -0.019 | encorafenib 0.044 | [3] -0.015 | [4] 0.057 | filanesib -0.117 | zotarolimus -0.061 | idasanutlin -0.027 | alisertib -0.019 | [5] -0.031 | gefitinib 0.006 | [6] -0.003 | lapatinib -0.006 | pictilisib -0.033

RNF213 isoform 4 (UniProt Q63HN8)
inactive: saracatinib -0.171 | sotrastaurin -0.071 | alvocidib 0.033 | Tubastatin A 0.033 | [1] -0.007 | defactinib -0.037 | rucaparib 0.288 | [2] -0.031 | encorafenib -0.075 | [3] 0.087 | [4] -0.084 | filanesib -0.062 | zotarolimus -0.083 | idasanutlin -0.238 | alisertib 0.111 | [5] -0.093 | gefitinib 0.071 | [6] 0.161 | lapatinib -0.081 | pictilisib -0.096

RBPJ (UniProt Q06330)
inactive: saracatinib 0.02 | sotrastaurin -0.008 | alvocidib 0.028 | Tubastatin A -0.006 | [1] -0.022 | defactinib 0.046 | rucaparib 0 | [2] -0.053 | encorafenib -0.032 | [3] 0.025 | [4] 0.026 | filanesib -0.014 | zotarolimus -0.03 | idasanutlin -0.006 | alisertib -0.115 | [5] 0.001 | gefitinib 0.003 | [6] 0.046 | lapatinib -0.009 | pictilisib 0.03

RILPL1 (UniProt Q5EBL4)
inactive: saracatinib -0.527 | sotrastaurin -0.131 | alvocidib 0.036 | Tubastatin A -0.032 | [1] -0.052 | defactinib 0.056 | rucaparib -0.191 | [2] 0.203 | encorafenib -0.034 | [3] -0.058 | [4] -0.046 | filanesib -0.005 | zotarolimus -0.085 | alisertib -0.003 | [6] -0.037

RMND5A (UniProt Q9H871)
inactive: saracatinib -0.016 | sotrastaurin 0.005 | alvocidib -0.034 | Tubastatin A 0.024 | [1] 0.05 | defactinib -0.075 | rucaparib -0.03 | [2] 0.056 | encorafenib 0.04 | [3] -0.012 | [4] -0.065 | filanesib 0.035 | zotarolimus 0.053 | idasanutlin -0.027 | alisertib -0.038 | [5] 0.012 | gefitinib 0.021 | [6] -0.008 | lapatinib 0.01 | pictilisib 0.07

RIOX2 (UniProt Q8IUF8)
inactive: saracatinib 0.17 | sotrastaurin -0.057 | alvocidib -0.012 | Tubastatin A -0.124 | [1] 0.086 | defactinib 0.054 | [2] 0 | [3] 0.148 | [4] -0.344 | filanesib 0.024 | zotarolimus 0.072 | idasanutlin 0.021 | alisertib -0.064 | [5] 0.053 | gefitinib -0.056 | [6] -0.101 | lapatinib -0.045 | pictilisib 0.043

RNF146 (UniProt Q9NTX7)
inactive: saracatinib 0.011 | sotrastaurin 0.026 | alvocidib 0.064 | Tubastatin A -0.035 | [1] 0.043 | defactinib -0.019 | rucaparib -0.017 | [2] -0.06 | encorafenib -0.185 | [3] -0.015 | [4] -0.132 | filanesib -0.01 | zotarolimus -0.106 | idasanutlin 0.062 | [5] 0.054 | lapatinib -0.05

RBP5 (UniProt P82980)
inactive: saracatinib -0.011 | sotrastaurin 0.205 | alvocidib 0 | Tubastatin A -0.116 | [1] 0.033 | rucaparib -0.259 | [2] 0.062 | encorafenib 0.19 | [4] 0.032 | filanesib -0.152 | zotarolimus 0.067 | idasanutlin -0.026 | alisertib -0.165 | [5] -0.109 | gefitinib 0.04 | [6] -0.01 | lapatinib -0.023 | pictilisib -0.187
